## Primary screen of a compound library

Amino acid sequences for entries named in this document (tags omitted).
UniProt E9BF75, entry or part of it: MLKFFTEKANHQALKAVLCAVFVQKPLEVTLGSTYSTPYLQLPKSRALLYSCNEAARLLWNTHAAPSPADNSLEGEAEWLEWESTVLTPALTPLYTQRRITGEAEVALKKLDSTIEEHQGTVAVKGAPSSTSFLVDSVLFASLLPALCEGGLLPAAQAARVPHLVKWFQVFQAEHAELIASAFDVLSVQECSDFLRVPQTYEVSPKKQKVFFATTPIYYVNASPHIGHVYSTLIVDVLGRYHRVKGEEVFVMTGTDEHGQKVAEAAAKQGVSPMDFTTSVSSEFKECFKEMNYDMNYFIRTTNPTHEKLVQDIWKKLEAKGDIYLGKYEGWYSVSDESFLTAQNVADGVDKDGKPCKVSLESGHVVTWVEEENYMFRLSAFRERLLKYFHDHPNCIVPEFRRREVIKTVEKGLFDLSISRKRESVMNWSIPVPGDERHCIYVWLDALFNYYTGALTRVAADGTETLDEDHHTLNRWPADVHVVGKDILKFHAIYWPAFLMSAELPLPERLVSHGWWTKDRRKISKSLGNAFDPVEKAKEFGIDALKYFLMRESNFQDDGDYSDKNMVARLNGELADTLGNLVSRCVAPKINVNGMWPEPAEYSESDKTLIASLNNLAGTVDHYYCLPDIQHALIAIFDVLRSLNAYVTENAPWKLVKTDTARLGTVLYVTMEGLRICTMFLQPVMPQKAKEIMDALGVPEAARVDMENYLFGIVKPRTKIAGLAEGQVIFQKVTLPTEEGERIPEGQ

Mtb heat-shock: 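Assay on Mycobacterium tuberculosis, filed only as a heat shock assay from Cornell; the read-out is not stated. The concentration is filed as 10 mM, unlikely as a test dose, so the dose is not known. The record gives no direction; compounds that gave an IC50 in retests scored well above the rest, so higher reads as stronger inhibition. About 69,000 compounds were tested under these conditions; 1.4% (about 930) showed 50% or more at least once.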
Mtb growth Cornell: 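Whole-cell assay for inhibitors of Mycobacterium tuberculosis growth, labelled Cornell in the record; the read-out is not stated. The concentration is filed as 10 mM, unlikely as a test dose, so the dose is not known. The record gives no direction; compounds strong in two other growth screens of this library score well above the rest, so higher reads as stronger inhibition. Size under these conditions: about 53,000 compounds, about 900 of them at 50% or above in at least one test.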
LdMetRS: 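Methionyl-tRNA synthetase (putative), Leishmania donovani (UniProt E9BF75). Primary screen of methionyl-tRNA synthetase; the read-out is not stated. The test concentration is not given. The values are filed as inhibition. Of about 68,000 compounds tested this way, about 24 (0.035%) reached 50% or more in at least one test.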

All values are in %.
The record does not define 0% and 100%; most values in the screen are far below 50% and negative numbers occur (in some assays of this library far below -100).
This is an unselected part of the compounds tested.

{"smiles": "CC(C)(NCC(=O)NCC(F)(F)F)c1ccc2c(c1)OCCO2", "Mtb heat-shock": 8.291, "Mtb growth Cornell": 6.473, "LdMetRS": 5.882}
{"smiles": "CCCN(c1ccccc1C(=O)O)S(=O)(=O)c1ccc2ccccc2c1", "Mtb heat-shock": 4.878, "LdMetRS": 12.03}
{"smiles": "Cc1ncc(CN2CCOC(CNc3cccnn3)C2)s1", "stereo": "stereo not shown", "Mtb heat-shock": 0.2827, "LdMetRS": 13.25}
{"smiles": "O=C(c1cnc2ccc(Cl)cc2c1NCc1ccco1)N1CCCCC1", "Mtb heat-shock": -6.057, "Mtb growth Cornell": 21.97, "LdMetRS": 8.579}
{"smiles": "Cc1ncc(C(=O)NCCNC(=O)Cc2cccc(F)c2)s1", "Mtb heat-shock": -13.18, "LdMetRS": 20.67}
{"smiles": "CNS(=O)(=O)c1ccc(CNC(=O)Nc2cc(C)on2)s1", "Mtb heat-shock": 11.55, "Mtb growth Cornell": 5.161, "LdMetRS": 4.076}
{"smiles": "CC(=O)N1CCN(C(=O)NC(C)C)CC2(CNC(=O)C2)C1", "stereo": "stereo not shown", "Mtb heat-shock": 8.002, "Mtb growth Cornell": 12.52, "LdMetRS": 12.97}
{"smiles": "CCCn1ccc(C(=O)Nc2ccc3c(c2)C(C)(C)C(=O)N3C)n1", "Mtb heat-shock": -6.856, "Mtb growth Cornell": -7.457, "LdMetRS": 7.365}
{"smiles": "CC(NC(=O)c1cccs1)(C(N)=O)c1cccc(C(F)(F)F)c1", "stereo": "stereo not shown", "Mtb heat-shock": -6.08, "Mtb growth Cornell": -1.565, "LdMetRS": 10.18}
{"smiles": "COC1CCN(S(=O)(=O)N2CC[C@@](O)(C3CCC3)[C@H](C)C2)CC1", "Mtb heat-shock": -89.03, "LdMetRS": -1.511}
{"smiles": "COCCCn1ccnc1-c1cnc(OC)nc1", "Mtb heat-shock": 16.18, "LdMetRS": 17.03}
{"smiles": "O=C(CN1C=Nc2ccccc2S1(=O)=O)NC1CCCCC1", "Mtb heat-shock": 11.08, "Mtb growth Cornell": 22.32, "LdMetRS": 6.983}
{"smiles": "c1ccc(CN2Cc3[nH]nc(COc4cccnc4)c3C2)nc1", "LdMetRS": 20.17}
{"smiles": "O=C(O)C(F)(F)F.[H][C@]12CCC(=O)N(c3ccccc3)[C@@]1([H])CCN2C(=O)c1ccc(C)nc1", "Mtb heat-shock": -1.651, "Mtb growth Cornell": 22.24}
{"smiles": "c1csc(-c2nc(CN3CCN(c4cnccn4)CC3)co2)c1", "Mtb heat-shock": -27.02, "Mtb growth Cornell": 14.62, "LdMetRS": 14.34}
{"smiles": "Cc1ccc(N2CC3(COCCN(Cc4cnn(C)c4)C3)OCC2=O)s1.O=C(O)C(F)(F)F", "stereo": "stereo not shown", "Mtb heat-shock": 3.762, "Mtb growth Cornell": 8.96}
{"smiles": "O=C(NC1COC2(CCN(Cc3ccccn3)CC2)C1)c1ccccn1.O=C(O)C(F)(F)F", "stereo": "stereo not shown", "Mtb heat-shock": 4.265, "Mtb growth Cornell": -11.85}
{"smiles": "COC(=O)N1CCCC(C(=O)N(C)C)C1", "stereo": "stereo not shown", "Mtb heat-shock": 4.397, "LdMetRS": 13.53}
{"smiles": "O=C(O)C(F)(F)F.[H][C@@]12CCN(Cc3scnc3C)C[C@]1(c1nc(C)no1)CCO2", "Mtb heat-shock": -1.318, "Mtb growth Cornell": 6.026}
{"smiles": "CC(C)C(=O)N1CCC2(CC1)NC(=O)c1ccccc12.Cl", "Mtb heat-shock": -2.499, "Mtb growth Cornell": 19.15}
{"smiles": "COc1cccc(COCC(=O)NC(C(N)=O)c2ccccc2F)c1", "stereo": "stereo not shown", "Mtb heat-shock": -31.41, "Mtb growth Cornell": -27.99, "LdMetRS": 4.485}
{"smiles": "COCC(=O)Nc1ccc([C@@H](O)[C@H]2COCC(=O)N2CC(C)C)cc1", "LdMetRS": 6.015}
{"smiles": "CN(C)C(=O)N1CCN(Cc2cnc(-c3ccsc3)s2)CC1", "Mtb heat-shock": -12.77, "LdMetRS": 7.326}
{"smiles": "CN(C)c1nccc(N(C)Cc2nc3ccccc3n2C)n1", "Mtb heat-shock": -10.88, "Mtb growth Cornell": 13.03, "LdMetRS": 12.1}
{"smiles": "CC(C)c1nccn1CCC(=O)NCC(C)(O)c1ccco1", "stereo": "stereo not shown", "Mtb heat-shock": 5.977, "Mtb growth Cornell": -15.02, "LdMetRS": 13.18}
{"smiles": "CN1CCN(C[C@@H]2OC[C@H]3CN(Cc4ccncc4)CC[C@H]32)CC1", "LdMetRS": 16.75}
{"smiles": "Fc1ccc(-c2nc(CN3CCOC(Cn4cccn4)C3)co2)cc1", "stereo": "stereo not shown", "Mtb heat-shock": -5.146, "Mtb growth Cornell": -11.5, "LdMetRS": 19.94}
{"smiles": "CC(Cn1cccn1)NS(=O)(=O)Cc1ccccc1", "stereo": "stereo not shown", "Mtb heat-shock": 6.322, "LdMetRS": 3.014}
{"smiles": "Cc1cccc(Nc2nccnc2C2CCCN(CC(=O)N(C)C)C2)n1", "stereo": "stereo not shown", "Mtb heat-shock": -11.48, "Mtb growth Cornell": -27.56, "LdMetRS": 15.25}
{"smiles": "COc1ccc2c(ccn2CCC(=O)O)c1", "Mtb heat-shock": -10.73, "LdMetRS": 3.734}

Measurements from “University of Dundee, Small-Polar-MMV Screening Library” (2021), ChEMBL document CHEMBL3988442.